Source: PubChem BioAssay AID504786 (Drosophila RNAi Screening Center, 2011)
Test: 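Fly genes required for HIF-dependent transcription when hypoxia is mimicked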 (primary screen). System: Drosophila S2 cells with a stable HIF luciferase reporter. Knock-down reagent: long dsRNA against Drosophila genes, about 0.2 µg dsRNA per well of a 384-well plate. Timing: three days of knock-down, then 20 h of DFO before reading. Challenge: desferrioxamine (DFO) at 100 µM, an iron chelator that mimics hypoxia, for 20 h. Detection: 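Firefly luciferase driven by the mouse ldh-a hypoxia-response element, measured after 20 h of 100 µM DFO; z-scores per plate, higher means more signal lost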. Scale: z-score: higher = stronger loss of HIF reporter signal.
The deposit covers about 21,000 reagents; shown is a random part of those that have a named target and a result. 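Primary screen; positive scores mean lost reporter signal, so the sign may be inverted from the usual convention.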 Reagents against one gene are numbered here. Names joined by + are all predicted targets of the reagent.

target | dsRNA no. | z-score, replicate 1 | z-score, replicate 2 | z-score, replicate 3 | z-score, replicate 4
SkpA | 1 | -0.4 | -0.6 | – | –
CG6565 | 1 | 0 | 0.3 | – | –
mRpL43 | 1 | -0.4 | -0.5 | 0.8 | 1.5
snRNA:U1:95Cc | 1 | 4.2 | 0.2 | – | –
CG16775 | 1 | -0.2 | -0.2 | – | –
CG11893 | 1 | -0.5 | -0.7 | – | –
Mst84Db | 1 | -0.4 | -0.5 | – | –
Mst84Db | 2 | -0.3 | -0.5 | – | –
CG33640 | 1 | -0.1 | -0.3 | – | –
Ir51a | 1 | -0.2 | -0.2 | – | –
Sry-beta | 1 | -0.2 | -0.1 | – | –
mars | 1 | -0.2 | -0.1 | 0 | -0.2
Appl | 1 | -0.2 | -0.1 | – | –
Tsp42En | 1 | -0.3 | -0.5 | – | –
CG11470 | 1 | -0.3 | -0.2 | – | –
Or82a | 1 | 0.3 | 0 | – | –
Mst84B | 1 | -0.2 | -0.6 | – | –
CG9284 (retired record) | 1 | -0.3 | 0.3 | – | –
CG9284 (retired record) | 2 | -0.2 | -0.5 | – | –
CG7906 | 1 | -0.3 | -0.4 | – | –
CG9514 | 1 | -0.4 | -0.2 | – | –
CG9514 | 2 | -0.1 | -0.8 | – | –
CG4752 | 1 | -0.4 | -0.2 | – | –
CG11449 | 1 | -0.3 | -0.3 | – | –
CG4998 | 1 | -0.1 | -0.7 | – | –
CG42700 | 1 | 3.8 | 4.2 | – | –
CG42700 | 2 | -0.3 | -0.2 | – | –
gfzf | 1 | 1.3 | 1.3 | – | –
CG9997 | 1 | 0 | -0.3 | – | –
orb2 | 1 | -0.1 | -0.1 | – | –
orb2 | 2 | -0.3 | 0 | – | –
orb2 | 3 | -0.1 | -0.3 | – | –
CG12493 | 1 | -0.5 | -0.3 | – | –
CG17048 | 1 | -0.2 | 0 | – | –
CG1986 | 1 | -0.2 | 0.2 | – | –
CG14186 | 1 | -0.2 | -0.1 | – | –
Sec20 | 1 | -0.5 | -1 | – | –
CG12231 | 1 | -0.5 | -0.4 | – | –
Nemp | 1 | -0.1 | -0.5 | – | –
POSH | 1 | -0.3 | -0.5 | – | –
RpL5 | 1 | 7.4 | 5.4 | – | –
disco | 1 | -0.3 | 0.3 | – | –
CG14820 | 1 | 1.6 | -0.4 | – | –
CG12483 | 1 | -0.4 | 0.2 | – | –
sob | 1 | -0.1 | -0.6 | – | –
CG15547 | 1 | 0.2 | 0.1 | – | –
CG6163 | 1 | -0.3 | -0.3 | – | –
CG7024 | 1 | 0.1 | -0.2 | – | –
CG7182 | 1 | -0.2 | 0.1 | – | –
PolI | 1 | 0.2 | -0.1 | – | –
htl | 1 | -0.2 | -0.1 | – | –
CG17030 | 1 | -0.3 | -0.1 | – | –
CG6231 | 1 | -0.7 | -0.6 | – | –
Jon65Aiv | 1 | -0.3 | -0.7 | – | –
Cln7 | 1 | -0.2 | -0.9 | – | –
CG10492 | 1 | 0.6 | 0.7 | – | –
CG44836 | 1 | -0.2 | -0.2 | – | –
stck | 1 | -0.3 | -0.3 | – | –
CG12645 | 1 | -0.1 | 0.4 | – | –
nuf | 1 | -0.2 | 0.1 | – | –
Oatp74D | 1 | 0.2 | -0.1 | – | –
Oatp74D | 2 | -0.3 | -0.6 | – | –
PIG-A | 1 | -0.2 | -0.5 | – | –
AnxB10 | 1 | -0.3 | -0.3 | – | –
Tsp42Eb + CG30160 | 1 | -0.3 | -0.1 | – | –
Tsp42Eb + CG30160 | 2 | -0.3 | 0.1 | – | –
CG3165 | 1 | -0.3 | -0.5 | – | –
Spp | 1 | -0.4 | -0.5 | – | –
LysP | 1 | -0.3 | -0.5 | – | –
Fs(2)Ket | 1 | 3.7 | 3.9 | – | –
Ptp61F | 1 | -0.5 | -0.5 | – | –
RIOK1 | 1 | -0.1 | -0.1 | – | –
CG15870 | 1 | -0.4 | 0 | – | –
Rab18 | 1 | -0.4 | -0.7 | – | –
Lst | 1 | -0.2 | -0.5 | – | –
plh | 1 | -0.2 | -0.2 | – | –
CG6296 | 1 | -0.3 | -0.2 | – | –
Abp1 | 1 | 0.2 | 0.2 | – | –
U3-55K | 1 | 0.3 | 0.9 | – | –
scramb1 | 1 | -0.2 | -0.2 | – | –
scramb1 | 2 | -0.2 | 0 | – | –
scramb1 | 3 | -0.3 | 0.9 | – | –
CG13609 | 1 | -0.5 | -0.1 | – | –
